These are yes or no findings as the source states them, for the method shown. Binding seen in cells or lysates may run through a third protein. Some binding calls cover weakened binding; strength is not graded here.
What was measured:
[1] = target: FLAG-tagged SRC-1 (wild type, mouse) (mouse) (UniProt P70365); experiment: co-IP; HEK293T cells transfected with 3xFLAG-SRC-1 or 3xFLAG-TIF2 plasmids for 48 h; lysed in 20 mM HEPES-NaOH pH 7.5, 150 mM NaCl, 1.0% digitonin; anti-FLAG M2 affinity gel overnight at 4 °C; immunoblot of endogenous partners
[2] = target: FLAG-tagged TIF2 (wild type, mouse) (mouse) (UniProt Q61026); experiment: as above

Chains of the proteins cited; added tags and fusions are not shown.
UniProt P70365: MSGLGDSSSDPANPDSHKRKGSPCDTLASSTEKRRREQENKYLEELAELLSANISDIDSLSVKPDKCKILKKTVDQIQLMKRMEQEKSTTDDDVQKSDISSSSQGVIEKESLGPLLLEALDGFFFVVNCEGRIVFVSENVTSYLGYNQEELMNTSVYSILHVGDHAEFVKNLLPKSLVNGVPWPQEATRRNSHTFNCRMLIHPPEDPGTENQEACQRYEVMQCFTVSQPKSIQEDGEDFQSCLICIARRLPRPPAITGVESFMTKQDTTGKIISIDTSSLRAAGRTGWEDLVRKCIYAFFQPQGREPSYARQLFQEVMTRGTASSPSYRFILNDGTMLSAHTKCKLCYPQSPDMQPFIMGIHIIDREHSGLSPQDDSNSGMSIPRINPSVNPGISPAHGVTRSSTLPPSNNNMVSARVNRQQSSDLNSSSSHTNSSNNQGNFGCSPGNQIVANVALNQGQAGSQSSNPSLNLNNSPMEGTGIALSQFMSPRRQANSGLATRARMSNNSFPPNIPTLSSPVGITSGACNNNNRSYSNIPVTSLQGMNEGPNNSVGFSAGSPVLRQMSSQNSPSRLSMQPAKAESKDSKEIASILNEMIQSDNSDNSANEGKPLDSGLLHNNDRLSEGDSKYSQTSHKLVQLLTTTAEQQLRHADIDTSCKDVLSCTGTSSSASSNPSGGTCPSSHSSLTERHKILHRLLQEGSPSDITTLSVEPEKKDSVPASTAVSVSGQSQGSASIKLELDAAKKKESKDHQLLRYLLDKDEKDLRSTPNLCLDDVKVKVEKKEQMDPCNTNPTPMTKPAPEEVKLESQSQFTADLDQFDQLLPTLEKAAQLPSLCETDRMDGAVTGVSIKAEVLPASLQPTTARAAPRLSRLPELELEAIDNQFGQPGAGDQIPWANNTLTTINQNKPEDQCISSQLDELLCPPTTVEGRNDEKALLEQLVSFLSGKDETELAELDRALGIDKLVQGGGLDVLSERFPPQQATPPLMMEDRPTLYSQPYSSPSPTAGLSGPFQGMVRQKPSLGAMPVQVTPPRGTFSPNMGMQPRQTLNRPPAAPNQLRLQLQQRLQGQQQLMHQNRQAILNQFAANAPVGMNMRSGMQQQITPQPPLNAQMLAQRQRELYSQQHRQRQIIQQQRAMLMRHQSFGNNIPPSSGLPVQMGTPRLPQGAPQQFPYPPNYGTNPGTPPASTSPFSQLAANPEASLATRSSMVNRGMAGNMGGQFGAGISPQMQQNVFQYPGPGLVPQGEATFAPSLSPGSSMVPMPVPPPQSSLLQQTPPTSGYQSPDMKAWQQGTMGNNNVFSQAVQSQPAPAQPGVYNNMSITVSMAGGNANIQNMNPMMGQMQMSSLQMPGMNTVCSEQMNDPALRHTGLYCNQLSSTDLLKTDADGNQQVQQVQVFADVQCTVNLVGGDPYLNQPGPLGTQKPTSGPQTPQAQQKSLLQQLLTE
UniProt Q61026: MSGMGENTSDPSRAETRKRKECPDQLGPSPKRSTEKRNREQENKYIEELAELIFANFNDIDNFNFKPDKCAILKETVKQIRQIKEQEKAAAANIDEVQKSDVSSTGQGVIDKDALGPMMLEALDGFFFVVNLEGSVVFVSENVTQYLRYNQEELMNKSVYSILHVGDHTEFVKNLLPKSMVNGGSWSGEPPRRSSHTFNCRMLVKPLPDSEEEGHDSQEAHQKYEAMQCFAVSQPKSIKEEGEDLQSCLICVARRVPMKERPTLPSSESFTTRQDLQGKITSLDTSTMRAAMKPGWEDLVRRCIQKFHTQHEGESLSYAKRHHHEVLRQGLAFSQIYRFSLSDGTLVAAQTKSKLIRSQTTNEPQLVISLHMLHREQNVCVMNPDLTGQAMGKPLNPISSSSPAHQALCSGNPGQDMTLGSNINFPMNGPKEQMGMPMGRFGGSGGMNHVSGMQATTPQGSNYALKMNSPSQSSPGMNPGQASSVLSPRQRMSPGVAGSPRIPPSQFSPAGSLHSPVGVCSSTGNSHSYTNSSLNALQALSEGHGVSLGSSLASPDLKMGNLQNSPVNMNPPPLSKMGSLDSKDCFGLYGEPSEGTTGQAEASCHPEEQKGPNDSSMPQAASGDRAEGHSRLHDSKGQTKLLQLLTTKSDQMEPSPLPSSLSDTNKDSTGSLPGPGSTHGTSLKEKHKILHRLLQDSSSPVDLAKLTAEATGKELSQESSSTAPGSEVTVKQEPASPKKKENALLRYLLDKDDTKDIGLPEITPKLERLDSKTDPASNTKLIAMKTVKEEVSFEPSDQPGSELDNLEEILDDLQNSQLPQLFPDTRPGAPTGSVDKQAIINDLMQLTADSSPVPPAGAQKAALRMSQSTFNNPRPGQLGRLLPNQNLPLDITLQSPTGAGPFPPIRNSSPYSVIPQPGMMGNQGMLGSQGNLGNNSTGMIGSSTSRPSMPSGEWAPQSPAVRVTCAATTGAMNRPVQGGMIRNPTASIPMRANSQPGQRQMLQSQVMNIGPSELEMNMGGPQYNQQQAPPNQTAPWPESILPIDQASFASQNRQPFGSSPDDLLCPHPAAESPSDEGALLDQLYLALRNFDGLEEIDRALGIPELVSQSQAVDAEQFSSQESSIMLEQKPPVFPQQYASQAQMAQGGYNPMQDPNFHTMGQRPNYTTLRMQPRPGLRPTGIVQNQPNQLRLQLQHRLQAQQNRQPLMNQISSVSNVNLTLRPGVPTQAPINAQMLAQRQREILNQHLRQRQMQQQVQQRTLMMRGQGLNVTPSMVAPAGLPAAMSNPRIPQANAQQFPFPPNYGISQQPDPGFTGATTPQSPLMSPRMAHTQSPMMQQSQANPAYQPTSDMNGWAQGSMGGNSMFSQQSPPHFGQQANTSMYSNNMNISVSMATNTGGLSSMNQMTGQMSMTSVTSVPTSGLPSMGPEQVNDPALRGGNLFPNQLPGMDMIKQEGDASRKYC
UniProt O95166: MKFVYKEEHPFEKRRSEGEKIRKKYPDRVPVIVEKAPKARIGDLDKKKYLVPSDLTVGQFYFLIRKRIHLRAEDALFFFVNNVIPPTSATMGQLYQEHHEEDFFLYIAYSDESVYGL
UniProt P60520: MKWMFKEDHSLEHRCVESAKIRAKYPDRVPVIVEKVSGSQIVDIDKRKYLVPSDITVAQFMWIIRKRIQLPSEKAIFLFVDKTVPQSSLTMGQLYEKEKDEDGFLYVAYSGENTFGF

| Substance | binding [1] | binding [2] |
| --- | --- | --- |
| GABARAP (from UniProt O95166 1-117) | binds | binds |
| GATE16 (from UniProt P60520 1-117) | binds | binds |
